Assay results published in the supplement of paper PMC10849652.
This is one part of the list.

Protein sequences, listed by entry. Tags and fused reporters are not part of them. Lines headed by an entry give the natural chain unless they say otherwise; changes in a name come on top.
UniProt Q92604: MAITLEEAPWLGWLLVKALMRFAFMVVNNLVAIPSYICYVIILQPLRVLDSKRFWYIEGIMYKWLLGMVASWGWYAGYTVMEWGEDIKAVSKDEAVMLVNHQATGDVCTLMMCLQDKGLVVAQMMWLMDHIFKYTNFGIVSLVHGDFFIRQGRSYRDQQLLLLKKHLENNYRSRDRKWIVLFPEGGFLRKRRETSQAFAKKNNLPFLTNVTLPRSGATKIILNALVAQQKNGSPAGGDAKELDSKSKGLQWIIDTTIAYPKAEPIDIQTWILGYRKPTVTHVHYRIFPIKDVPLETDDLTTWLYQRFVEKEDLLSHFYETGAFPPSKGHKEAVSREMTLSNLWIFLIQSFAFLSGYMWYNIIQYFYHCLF
UniProt Q15345: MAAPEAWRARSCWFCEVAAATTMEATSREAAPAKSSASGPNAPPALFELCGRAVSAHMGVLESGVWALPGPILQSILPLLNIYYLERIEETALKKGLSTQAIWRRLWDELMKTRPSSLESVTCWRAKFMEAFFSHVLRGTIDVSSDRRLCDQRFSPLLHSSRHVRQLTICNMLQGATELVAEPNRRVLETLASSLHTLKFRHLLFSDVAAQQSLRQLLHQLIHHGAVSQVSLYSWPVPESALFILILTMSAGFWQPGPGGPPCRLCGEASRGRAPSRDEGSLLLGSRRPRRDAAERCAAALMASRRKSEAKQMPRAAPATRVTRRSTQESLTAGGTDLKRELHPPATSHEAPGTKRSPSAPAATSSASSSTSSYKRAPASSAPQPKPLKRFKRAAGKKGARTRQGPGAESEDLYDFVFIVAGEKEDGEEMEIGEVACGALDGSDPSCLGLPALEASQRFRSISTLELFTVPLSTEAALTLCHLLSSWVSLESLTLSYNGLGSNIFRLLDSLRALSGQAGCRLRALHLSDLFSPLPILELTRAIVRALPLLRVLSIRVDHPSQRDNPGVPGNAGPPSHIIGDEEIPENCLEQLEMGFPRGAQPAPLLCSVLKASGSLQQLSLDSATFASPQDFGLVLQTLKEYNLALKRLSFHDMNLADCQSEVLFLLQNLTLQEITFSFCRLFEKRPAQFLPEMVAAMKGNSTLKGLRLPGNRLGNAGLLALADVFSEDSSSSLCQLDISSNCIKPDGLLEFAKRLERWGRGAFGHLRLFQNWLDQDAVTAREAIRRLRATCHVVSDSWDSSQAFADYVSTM
UniProt Q9P244: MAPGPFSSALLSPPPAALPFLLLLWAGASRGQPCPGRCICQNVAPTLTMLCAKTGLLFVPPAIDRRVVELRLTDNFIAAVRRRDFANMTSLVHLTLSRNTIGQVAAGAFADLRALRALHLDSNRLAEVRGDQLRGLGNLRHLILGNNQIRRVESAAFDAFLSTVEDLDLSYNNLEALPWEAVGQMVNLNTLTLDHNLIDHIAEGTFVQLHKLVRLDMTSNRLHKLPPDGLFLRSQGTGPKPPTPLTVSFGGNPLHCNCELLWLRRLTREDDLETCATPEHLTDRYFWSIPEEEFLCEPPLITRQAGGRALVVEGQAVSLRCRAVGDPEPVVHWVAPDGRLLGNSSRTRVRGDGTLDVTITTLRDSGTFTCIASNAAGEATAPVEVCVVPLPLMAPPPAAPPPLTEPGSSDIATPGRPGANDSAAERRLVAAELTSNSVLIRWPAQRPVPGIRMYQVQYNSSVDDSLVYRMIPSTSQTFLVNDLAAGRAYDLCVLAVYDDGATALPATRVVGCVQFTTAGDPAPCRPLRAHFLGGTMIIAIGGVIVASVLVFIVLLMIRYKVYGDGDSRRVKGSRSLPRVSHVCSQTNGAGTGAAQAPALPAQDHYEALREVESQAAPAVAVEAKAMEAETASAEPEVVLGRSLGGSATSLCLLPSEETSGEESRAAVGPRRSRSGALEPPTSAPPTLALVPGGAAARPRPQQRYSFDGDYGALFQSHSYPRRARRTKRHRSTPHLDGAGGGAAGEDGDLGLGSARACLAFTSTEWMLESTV
UniProt O75581: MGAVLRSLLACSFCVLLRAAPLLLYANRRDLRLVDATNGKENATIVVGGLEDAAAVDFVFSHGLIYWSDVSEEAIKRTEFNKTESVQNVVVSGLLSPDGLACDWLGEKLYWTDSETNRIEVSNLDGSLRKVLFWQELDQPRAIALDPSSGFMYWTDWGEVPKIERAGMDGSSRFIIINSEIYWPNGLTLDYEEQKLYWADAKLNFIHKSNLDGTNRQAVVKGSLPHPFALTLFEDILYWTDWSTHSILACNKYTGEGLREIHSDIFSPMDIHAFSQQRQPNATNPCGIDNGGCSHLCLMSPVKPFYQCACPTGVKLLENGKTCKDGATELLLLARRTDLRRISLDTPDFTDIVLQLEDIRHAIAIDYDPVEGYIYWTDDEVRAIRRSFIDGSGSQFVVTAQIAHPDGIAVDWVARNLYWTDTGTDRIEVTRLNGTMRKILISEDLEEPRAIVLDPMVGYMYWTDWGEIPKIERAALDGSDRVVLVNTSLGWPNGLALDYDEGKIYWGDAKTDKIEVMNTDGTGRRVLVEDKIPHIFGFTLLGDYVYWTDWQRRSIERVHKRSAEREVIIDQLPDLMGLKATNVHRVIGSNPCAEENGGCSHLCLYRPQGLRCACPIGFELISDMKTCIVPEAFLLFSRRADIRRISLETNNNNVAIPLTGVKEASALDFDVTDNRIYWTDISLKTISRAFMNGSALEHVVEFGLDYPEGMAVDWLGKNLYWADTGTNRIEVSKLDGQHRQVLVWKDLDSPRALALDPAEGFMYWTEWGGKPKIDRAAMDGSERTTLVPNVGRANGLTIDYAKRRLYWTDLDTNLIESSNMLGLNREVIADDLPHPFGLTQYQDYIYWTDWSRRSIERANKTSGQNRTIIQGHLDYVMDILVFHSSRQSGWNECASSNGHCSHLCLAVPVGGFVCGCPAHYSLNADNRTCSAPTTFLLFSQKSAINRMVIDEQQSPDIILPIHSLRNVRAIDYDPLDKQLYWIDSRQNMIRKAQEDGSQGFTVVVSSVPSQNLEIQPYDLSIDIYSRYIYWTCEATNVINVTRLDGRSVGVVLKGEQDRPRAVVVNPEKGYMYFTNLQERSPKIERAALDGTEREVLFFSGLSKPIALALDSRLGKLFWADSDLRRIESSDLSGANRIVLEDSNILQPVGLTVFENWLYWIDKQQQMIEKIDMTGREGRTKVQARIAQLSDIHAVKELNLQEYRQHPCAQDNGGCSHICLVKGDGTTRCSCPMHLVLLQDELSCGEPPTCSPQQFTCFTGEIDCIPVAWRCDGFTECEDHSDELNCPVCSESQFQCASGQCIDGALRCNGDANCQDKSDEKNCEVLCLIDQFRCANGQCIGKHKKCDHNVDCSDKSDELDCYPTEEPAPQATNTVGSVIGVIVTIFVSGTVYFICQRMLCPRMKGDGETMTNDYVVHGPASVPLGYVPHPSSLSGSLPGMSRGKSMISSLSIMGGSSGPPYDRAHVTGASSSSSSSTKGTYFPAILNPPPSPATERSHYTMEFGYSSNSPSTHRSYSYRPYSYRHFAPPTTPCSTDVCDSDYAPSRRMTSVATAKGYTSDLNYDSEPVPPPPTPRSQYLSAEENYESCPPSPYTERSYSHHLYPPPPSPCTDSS
UniProt O75427: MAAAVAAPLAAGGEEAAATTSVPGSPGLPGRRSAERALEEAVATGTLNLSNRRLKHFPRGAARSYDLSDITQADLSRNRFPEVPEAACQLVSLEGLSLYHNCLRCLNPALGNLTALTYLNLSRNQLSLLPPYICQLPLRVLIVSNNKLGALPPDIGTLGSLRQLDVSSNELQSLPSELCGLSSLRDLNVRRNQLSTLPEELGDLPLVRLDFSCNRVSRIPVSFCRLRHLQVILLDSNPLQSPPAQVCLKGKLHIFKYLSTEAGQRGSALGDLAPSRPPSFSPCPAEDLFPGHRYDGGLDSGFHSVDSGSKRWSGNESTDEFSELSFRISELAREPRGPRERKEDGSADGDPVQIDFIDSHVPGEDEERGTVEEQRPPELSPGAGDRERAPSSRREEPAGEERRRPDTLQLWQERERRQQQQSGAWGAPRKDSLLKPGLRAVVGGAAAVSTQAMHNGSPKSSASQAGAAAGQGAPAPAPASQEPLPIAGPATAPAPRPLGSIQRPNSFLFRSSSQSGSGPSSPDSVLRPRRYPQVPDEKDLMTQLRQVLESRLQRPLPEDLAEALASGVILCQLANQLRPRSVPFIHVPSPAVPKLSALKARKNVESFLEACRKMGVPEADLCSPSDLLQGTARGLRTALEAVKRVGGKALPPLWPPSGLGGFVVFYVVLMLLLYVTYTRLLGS
UniProt Q5TKA1: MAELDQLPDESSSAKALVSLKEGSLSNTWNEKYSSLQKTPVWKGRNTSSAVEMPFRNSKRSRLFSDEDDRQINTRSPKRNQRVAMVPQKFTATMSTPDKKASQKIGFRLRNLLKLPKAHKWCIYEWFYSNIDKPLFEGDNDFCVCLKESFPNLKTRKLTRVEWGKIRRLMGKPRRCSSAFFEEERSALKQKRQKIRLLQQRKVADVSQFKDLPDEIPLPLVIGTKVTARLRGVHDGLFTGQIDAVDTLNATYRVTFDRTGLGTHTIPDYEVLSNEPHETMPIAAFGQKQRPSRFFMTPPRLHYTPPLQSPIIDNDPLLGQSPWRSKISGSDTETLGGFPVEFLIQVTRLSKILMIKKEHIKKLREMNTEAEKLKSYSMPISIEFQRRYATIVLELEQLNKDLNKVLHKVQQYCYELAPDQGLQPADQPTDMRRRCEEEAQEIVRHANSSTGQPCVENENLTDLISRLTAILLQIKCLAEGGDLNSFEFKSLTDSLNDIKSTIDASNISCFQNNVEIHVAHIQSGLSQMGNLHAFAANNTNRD
UniProt Q9BT23: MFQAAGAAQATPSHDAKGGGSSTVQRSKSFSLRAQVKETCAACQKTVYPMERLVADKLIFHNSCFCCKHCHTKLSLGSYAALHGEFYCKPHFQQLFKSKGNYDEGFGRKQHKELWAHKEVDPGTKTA
UniProt Q93052: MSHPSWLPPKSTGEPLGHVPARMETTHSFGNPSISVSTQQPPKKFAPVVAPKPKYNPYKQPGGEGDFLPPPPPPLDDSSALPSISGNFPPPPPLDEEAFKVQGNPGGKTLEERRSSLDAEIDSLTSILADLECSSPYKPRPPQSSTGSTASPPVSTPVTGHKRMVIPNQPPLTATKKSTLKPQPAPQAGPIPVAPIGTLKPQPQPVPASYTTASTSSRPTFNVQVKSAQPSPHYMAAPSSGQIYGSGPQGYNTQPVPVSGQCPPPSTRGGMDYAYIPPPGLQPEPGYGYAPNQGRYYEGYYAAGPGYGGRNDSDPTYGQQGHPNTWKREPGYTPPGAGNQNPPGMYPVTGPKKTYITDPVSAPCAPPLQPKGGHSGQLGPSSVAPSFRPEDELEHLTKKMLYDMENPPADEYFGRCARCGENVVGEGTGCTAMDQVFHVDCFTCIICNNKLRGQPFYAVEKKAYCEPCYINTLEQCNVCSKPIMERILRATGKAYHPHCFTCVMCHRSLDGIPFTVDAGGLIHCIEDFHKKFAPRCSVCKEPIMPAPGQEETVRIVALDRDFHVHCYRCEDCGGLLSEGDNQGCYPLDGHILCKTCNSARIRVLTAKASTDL
UniProt Q9GZZ8: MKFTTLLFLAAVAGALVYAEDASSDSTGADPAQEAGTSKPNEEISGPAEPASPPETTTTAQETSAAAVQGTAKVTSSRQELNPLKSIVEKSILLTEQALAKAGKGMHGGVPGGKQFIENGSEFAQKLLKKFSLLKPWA
UniProt Q8NG48: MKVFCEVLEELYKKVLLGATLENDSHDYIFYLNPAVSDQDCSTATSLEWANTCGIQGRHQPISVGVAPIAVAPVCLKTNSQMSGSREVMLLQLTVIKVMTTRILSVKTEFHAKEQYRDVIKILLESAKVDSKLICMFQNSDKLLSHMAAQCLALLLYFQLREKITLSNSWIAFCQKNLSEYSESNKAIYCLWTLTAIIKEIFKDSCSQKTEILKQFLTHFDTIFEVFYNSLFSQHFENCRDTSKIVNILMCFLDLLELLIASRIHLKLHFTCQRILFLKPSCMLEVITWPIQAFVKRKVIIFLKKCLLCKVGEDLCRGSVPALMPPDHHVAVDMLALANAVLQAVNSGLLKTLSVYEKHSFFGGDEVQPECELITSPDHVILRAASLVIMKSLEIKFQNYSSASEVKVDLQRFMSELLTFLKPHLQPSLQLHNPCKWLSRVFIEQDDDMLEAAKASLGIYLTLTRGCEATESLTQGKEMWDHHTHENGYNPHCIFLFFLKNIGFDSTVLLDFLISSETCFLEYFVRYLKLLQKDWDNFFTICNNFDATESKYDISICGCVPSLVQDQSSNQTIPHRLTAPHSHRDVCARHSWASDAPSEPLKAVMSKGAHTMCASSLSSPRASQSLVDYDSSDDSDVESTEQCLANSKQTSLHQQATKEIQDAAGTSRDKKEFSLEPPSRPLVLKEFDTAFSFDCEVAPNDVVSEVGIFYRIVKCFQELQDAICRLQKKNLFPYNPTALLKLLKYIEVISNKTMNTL

How the values were obtained:
Assay in all cases: log2 fold change, soluble protein after heating vs DMSO (PISA); higher = thermal stabilisation; K562 cells, 10 uM, 30 min; active = over 0.2 and 3.5 SD of the protein, either way, in both replicates (recomputed)
[1] = compound: CC1=C(C=C(C=C1)NC(=O)C2=CC(=CC=C2)C(C)(C)C#N)NC3=CC4=C(C=C3)N=CN(C4=O)C
In short: (§1)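 Soluble protein was defined as the supernatant after 21,000xg for 90 min. It came from K562 cells at 2×10^6 cells/mL given 10 μM compound for 30 min, heated in aliquots for 3 min across 48°C-58°C, pooled, and extracted in PBS with 0.5% NP-40 at 4°C, and was quantified by TMTpro 16plex LC-MS/MS with equalised channel sums. Thermal stability against control samples, from duplicates, is reported as log2 fold change.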

[2] = compound: CC1=C(C=C(C=C1)NC(=O)C2=CC(=CC=C2)N(C)C)NC(=O)C3=CC=C(C=C3)O
In short: as §1

[3] = compound: CC1=CC=C(C=C1)SC2=C3C=C(SC3=CN=C2)C(=O)N
In short: as §1

[4] = compound: CC1=NC(=CC=C1)C2=C(N=C(N2)C(C)(C)C)C3=CC4=NC=CN=C4C=C3
In short: as §1

Nexturastat A = compound: CCCCN(Cc1ccc(C(=O)NO)cc1)C(=O)Nc1ccccc1 [Nexturastat A]
In short: as §1

vemurafenib = compound: CCCS(=O)(=O)Nc1ccc(F)c(C(=O)c2c[nH]c3ncc(-c4ccc(Cl)cc4)cc23)c1F [vemurafenib]
In short: as §1

[5] = compound: CCCS(=O)(=O)Nc1ccc(F)c(C(=O)c2c[nH]c3ncc(Cl)cc23)c1F
In short: as §1

[6] = compound: CCCc1cc(C)[nH]c(=O)c1CNC(=O)c1cc(-c2ccnc(N3CCN(C)CC3)c2)cc2c1cnn2C(C)C
In short: as §1

givinostat = compound: CCN(CC)Cc1ccc2cc(COC(=O)Nc3ccc(C(=O)NO)cc3)ccc2c1 [givinostat]
In short: as §1

barasertib = compound: CCN(CCCOc1ccc2c(Nc3cc(CC(=O)Nc4cccc(F)c4)[nH]n3)ncnc2c1)CCOP(=O)(O)O [barasertib]
In short: as §1

[7] = compound: CC[C@@H]1C(=O)N(C)c2cnc(Nc3ccc(C(=O)NC4CCN(C)CC4)cc3OC)nc2N1C1CCCC1
In short: as §1

volasertib = compound: CC[C@@H]1C(=O)N(C)c2cnc(Nc3ccc(C(=O)N[C@H]4CC[C@H](N5CCN(CC6CC6)CC5)CC4)cc3OC)nc2N1C(C)C [volasertib]
In short: as §1

[8] = compound: CC[C@H](C)N1C=C(C2=C(C=C(C=C21)C3=CN=C(C=C3)N4CCNCC4)C(=O)NCC5=C(C=C(NC5=O)C)C)C
In short: as §1

epoxomicin = compound: CC[C@H](C)[C@@H](C(=O)N[C@@H]([C@@H](C)O)C(=O)N[C@@H](CC(C)C)C(=O)[C@]1(CO1)C)NC(=O)[C@H]([C@@H](C)CC)N(C)C(=O)C [epoxomicin]
In short: as §1

[9] = compound: CN(C)CC(=O)Nc1ccc2[nH]c(=O)c3ccccc3c2c1
In short: as §1

[10] = compound: CN1C2=C(C3=C1C(=O)N(N=C3)CC4=CC(=CC=C4)N)SC(=C2)S(=O)C
In short: as §1

[11] = compound: CCn1cc(-c2ccnc3[nH]c(-c4cccc(CN(C)C)c4)cc23)c(-c2ccc(NC(=O)N(C)C)cc2)n1
In short: as §1

[12] = compound: CN1CCC(CNc2ccc3ncc(-c4cccc(OC(F)(F)F)c4)n3n2)CC1
In short: as §1

[13] = compound: CCn1c(C(=O)N(C2CC2)C2CC2)cc2c3c(ncn3C)c(Nc3cc(C)n(C)n3)nc21
In short: as §1

rosiglitazone = compound: CN(CCOC1=CC=C(C=C1)C[C@H]2C(=O)NC(=O)S2)C3=CC=CC=N3 (racemic) [rosiglitazone]
In short: as §1

| Target | log2 fold change [1] | log2 fold change [2] | log2 fold change [3] | log2 fold change [4] | log2 fold change (Nexturastat A) | log2 fold change (vemurafenib) | log2 fold change [5] | log2 fold change [6] | log2 fold change (givinostat) | log2 fold change (barasertib) | log2 fold change [7] | log2 fold change (volasertib) | log2 fold change [8] | log2 fold change (epoxomicin) | log2 fold change [9] | log2 fold change [10] | log2 fold change [11] | log2 fold change [12] | log2 fold change [13] | log2 fold change (rosiglitazone) |
| --- | --- | --- | --- | --- | --- | --- | --- | --- | --- | --- | --- | --- | --- | --- | --- | --- | --- | --- | --- | --- |
| LPGAT1 (UniProt Q92604) | inactive: -0.077 | inactive: 0 | inactive: 0.034 | inactive: 0.077 | inactive: 0.036 | inactive: 0.018 | inactive: 0.086 | inactive: -0.033 | inactive: 0.064 | inactive: 0.068 | inactive: -0.206 | active: -0.401 | inactive: 0.063 | inactive: 0.015 | inactive: 0.051 | inactive: -0.029 |  |  |  |  |
| LRBA, A0A494BZW2 | inactive: -0.082 | inactive: 0.06 | inactive: -0.048 | inactive: 0.078 | inactive: -0.264 |  | inactive: 0.272 | inactive: 0.038 | inactive: 0.264 | inactive: 0.026 | inactive: -0.04 | inactive: -0.025 | inactive: 0.007 | inactive: -0.03 |  | inactive: 0.043 | inactive: -0.039 | inactive: -0.115 |  |  |
| LARGE2 (UniProt Q8N3Y3) | inactive: -0.018 |  |  | inactive: 0.022 |  |  |  |  |  |  |  |  |  |  |  |  |  |  |  |  |
| LIN37 (UniProt Q96GY3) | inactive: -0.036 |  | inactive: 0.004 | inactive: 0.01 |  |  | inactive: -0.018 |  | inactive: 0.453 |  |  | inactive: -0.038 |  |  |  |  | inactive: -0.03 | inactive: -0.106 | inactive: -0.044 |  |
| LPCAT2 (UniProt Q7L5N7) | inactive: 0.051 | inactive: -0.076 | inactive: 0.021 | inactive: 0.145 | inactive: -0.102 | inactive: 0.051 | inactive: -0.027 | inactive: -0.055 | inactive: 0.079 | inactive: 0.068 | inactive: -0.026 | inactive: -0.173 |  | inactive: -0.131 | inactive: 0.027 | inactive: 0.053 | inactive: -0.067 | inactive: 0.068 | inactive: 0.077 | inactive: 0.019 |
| LRRC41 (UniProt Q15345) | inactive: 0.12 |  | inactive: 0.093 |  |  |  | inactive: 0.06 |  | inactive: 0.16 | inactive: -0.244 |  | inactive: -0.395 |  |  |  |  |  |  | inactive: -0.036 | inactive: 0.292 |
| LRFN1 (UniProt Q9P244) | inactive: 0.052 | inactive: 0.076 | inactive: 0.02 | inactive: -0.101 | inactive: 0.241 | inactive: -0.031 | inactive: 0.054 |  | inactive: -0.025 | inactive: 0.037 | inactive: -0.015 | inactive: 0.033 |  | inactive: -0.125 | inactive: 0.134 | inactive: 0.069 |  |  |  |  |
| LRRC4B (UniProt Q9NT99) | inactive: 0 | inactive: 0 | inactive: -0.044 | inactive: -0.047 | inactive: -0.005 | inactive: -0.119 | inactive: 0.075 |  | inactive: 0.201 | inactive: -0.028 | inactive: 0.105 | inactive: 0.115 | inactive: 0.147 | inactive: -0.027 | inactive: 0.017 | inactive: 0 | inactive: -0.005 | inactive: 0.231 | inactive: -0.154 | inactive: -0.152 |
| LRP6 (UniProt O75581) | inactive: 0.07 |  | inactive: 0 | inactive: 0.077 |  |  | inactive: -0.067 |  | inactive: -0.12 | inactive: 0.001 | inactive: 0.042 | inactive: -0.086 |  |  |  | inactive: -0.383 | inactive: -0.185 | inactive: -0.071 | inactive: 0.074 | inactive: 0.092 |
| LRCH4 (UniProt O75427) | inactive: -0.079 | inactive: -0.098 |  | inactive: -0.022 | inactive: 0.123 |  |  |  |  |  | inactive: 0.288 |  |  | inactive: 0.136 |  | inactive: 0.495 | inactive: 0.067 | inactive: -0.058 |  |  |
| LIN9 isoform 2 (UniProt Q5TKA1) | inactive: -0.186 | inactive: -0.019 |  | inactive: 0.153 | inactive: 0.036 | inactive: 0.118 |  |  |  | inactive: 0.242 | inactive: -0.113 |  |  | inactive: 0.037 | inactive: 0.205 |  |  |  |  | inactive: -0.041 |
| LMNB1 (UniProt P20700) | inactive: -0.019 | inactive: 0.027 | inactive: -0.046 | inactive: -0.012 | inactive: -0.045 | inactive: 0.1 | inactive: 0.065 | inactive: -0.029 | inactive: 0.002 | inactive: 0.021 | inactive: -0.045 | active: -0.308 | inactive: 0.023 | inactive: 0.037 | inactive: 0.034 | inactive: -0.034 | inactive: 0.115 | inactive: 0.026 |  |  |
| LPCAT3 (UniProt Q6P1A2) | active: 0.289 | inactive: -0.029 | inactive: 0.052 | inactive: 0.033 | inactive: -0.226 | inactive: -0.019 | inactive: 0.036 | inactive: 0.089 | inactive: 0.031 | inactive: -0.005 | inactive: 0.146 | inactive: -0.026 | inactive: -0.008 | inactive: -0.005 | inactive: 0.087 | inactive: -0.093 | inactive: -0.063 | inactive: -0.202 |  |  |
| LIMD2 (UniProt Q9BT23) | inactive: -0.033 |  | inactive: 0.022 |  |  |  | inactive: -0.144 |  | inactive: 0.159 |  | inactive: 0.067 | inactive: -0.017 |  |  |  |  |  |  | inactive: -0.068 |  |
| LRG1 (UniProt P02750) | inactive: 0.103 | inactive: -0.163 | inactive: 0.054 | inactive: -0.09 | inactive: -0.184 | inactive: -0.081 | inactive: -0.061 | inactive: 0.137 | inactive: -0.422 |  | inactive: 0.046 | inactive: -0.01 |  | inactive: 0.365 | inactive: 0.038 | inactive: 0.107 | inactive: -0.017 | inactive: 0.243 | inactive: -0.229 |  |
| LETMD1 isoform 7 (UniProt Q6P1Q0) | inactive: 0.063 | inactive: -0.017 | inactive: 0.045 | inactive: 0.014 | inactive: 0.149 |  | inactive: 0.103 | inactive: 0.022 | inactive: -0.008 | inactive: -0.006 | inactive: -0.048 | inactive: -0.068 | inactive: 0.058 | inactive: -0.042 |  | inactive: -0.07 | inactive: 0.08 | inactive: -0.111 | inactive: 0.033 | inactive: 0.064 |
| LPP (UniProt Q93052) | inactive: -0.276 |  |  | inactive: 0.223 | inactive: 0.006 |  |  |  |  | inactive: 0.096 |  |  | inactive: -0.401 | inactive: -0.289 |  |  |  |  |  | inactive: 0.282 |
| LRP8 (UniProt E9PP15) | inactive: 0.031 | inactive: -0.06 | inactive: 0.013 | inactive: -0.226 | inactive: 0.16 | inactive: 0.015 | inactive: -0.063 | inactive: -0.008 | inactive: 0.33 | inactive: 0.073 | inactive: -0.154 | inactive: 0.031 |  | inactive: 0 | inactive: -0.036 | inactive: -0.126 |  |  | inactive: -0.041 | inactive: -0.014 |
| LACRT (UniProt Q9GZZ8) | inactive: -0.027 | inactive: 0.001 |  |  | inactive: -0.29 | inactive: -0.171 |  | inactive: 0.107 |  | inactive: 1.02 | inactive: -0.072 |  | inactive: 1.13 | inactive: 0.346 | inactive: -0.149 |  |  |  |  | inactive: -0.148 |
| LPIN3 isoform 2 (UniProt Q9BQK8) | inactive: -0.152 | inactive: 0.005 | inactive: -0.04 |  | inactive: -0.014 | inactive: -0.001 | inactive: -0.069 | inactive: -0.014 | inactive: -0.006 | inactive: -0.054 | inactive: 0.016 | inactive: -0.015 | inactive: 0.04 | inactive: 0.073 | inactive: -0.054 | inactive: 0.002 | inactive: -0.078 | active: -0.27 |  |  |
| LARP1B, A0A3B3ISF0 | inactive: -0.133 | inactive: 0.025 | inactive: 0.038 |  |  |  | inactive: -0.187 |  |  |  | inactive: -0.127 | inactive: 0.086 |  |  |  |  | inactive: 0.201 | inactive: 0.155 |  |  |
| LINS1 (UniProt Q8NG48) | inactive: 0.218 | inactive: -0.099 |  | inactive: 0.055 | inactive: -0.084 |  |  | inactive: -0.045 | inactive: -0.086 | inactive: 0.222 |  |  |  | inactive: 0.007 |  |  |  |  | inactive: -0.016 | inactive: -0.119 |

Quoted at random: 2 records from the list, in no set order.

| Target | log2 fold change [1] | log2 fold change [2] | log2 fold change [3] | log2 fold change [4] | log2 fold change (Nexturastat A) | log2 fold change (vemurafenib) | log2 fold change [5] | log2 fold change [6] | log2 fold change (givinostat) | log2 fold change (barasertib) | log2 fold change [7] | log2 fold change (volasertib) | log2 fold change [8] | log2 fold change (epoxomicin) | log2 fold change [9] | log2 fold change [10] | log2 fold change [11] | log2 fold change [12] | log2 fold change [13] | log2 fold change (rosiglitazone) |
| --- | --- | --- | --- | --- | --- | --- | --- | --- | --- | --- | --- | --- | --- | --- | --- | --- | --- | --- | --- | --- |
| LETMD1 isoform 7 (UniProt Q6P1Q0) | inactive: 0.063 | inactive: -0.017 | inactive: 0.045 | inactive: 0.014 | inactive: 0.149 |  | inactive: 0.103 | inactive: 0.022 | inactive: -0.008 | inactive: -0.006 | inactive: -0.048 | inactive: -0.068 | inactive: 0.058 | inactive: -0.042 |  | inactive: -0.07 | inactive: 0.08 | inactive: -0.111 | inactive: 0.033 | inactive: 0.064 |
| LRP8 (UniProt E9PP15) | inactive: 0.031 | inactive: -0.06 | inactive: 0.013 | inactive: -0.226 | inactive: 0.16 | inactive: 0.015 | inactive: -0.063 | inactive: -0.008 | inactive: 0.33 | inactive: 0.073 | inactive: -0.154 | inactive: 0.031 |  | inactive: 0 | inactive: -0.036 | inactive: -0.126 |  |  | inactive: -0.041 | inactive: -0.014 |
